Data: publication PMC9303367, “Synthesis of Aminoethyl‐Substituted Piperidine Derivatives as σ1 Receptor Ligands with Antiproliferative Properties” (Chemmedchem, 2022)

Tested on: human non-small cell lung cancer cell line A427
Assay: A427 tumor cell proliferation (confluence) assay, IncuCyte S3 live cell imaging
Settings: A-427, 120 h, read-out: Inhibition of cell confluency IC50 ± SD, A427 cells, last time point (approx. 5 d), n = 3

**Q.** With `O=C(CCCN1CCC(O)(c2ccc(Cl)cc2)CC1)c1ccc(F)cc1` [haloperidol, reference compound] as the compound, how does the IC50 read?
**A.** 16 µM
